Assay results from article PMC8221569.

T1: DNAJC9-H43Q-D45N-MYC-Flag (J) (human) (UniProt Q8WXX5)
T1 sequence: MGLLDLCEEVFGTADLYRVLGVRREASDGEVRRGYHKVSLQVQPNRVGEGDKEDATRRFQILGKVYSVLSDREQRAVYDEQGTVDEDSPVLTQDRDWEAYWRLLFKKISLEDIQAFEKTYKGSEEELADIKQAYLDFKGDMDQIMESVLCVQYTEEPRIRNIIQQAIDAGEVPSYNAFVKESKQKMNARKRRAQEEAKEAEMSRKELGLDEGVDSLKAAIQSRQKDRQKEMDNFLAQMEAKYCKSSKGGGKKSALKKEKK

T2: DNAJC9-MYC-Flag WT (human) (UniProt Q8WXX5)
T2 sequence: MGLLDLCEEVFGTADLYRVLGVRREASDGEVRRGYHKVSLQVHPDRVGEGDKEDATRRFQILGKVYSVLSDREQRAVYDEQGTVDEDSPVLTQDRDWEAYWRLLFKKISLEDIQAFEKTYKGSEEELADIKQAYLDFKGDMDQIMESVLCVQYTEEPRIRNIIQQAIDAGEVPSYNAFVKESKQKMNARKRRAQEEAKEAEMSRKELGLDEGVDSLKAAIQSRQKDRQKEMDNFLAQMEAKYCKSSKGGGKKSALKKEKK

T3: DNAJC9-Q224A-R227A-M238A-Y242A-MYC-Flag (4A) (human) (UniProt Q8WXX5)
T3 sequence: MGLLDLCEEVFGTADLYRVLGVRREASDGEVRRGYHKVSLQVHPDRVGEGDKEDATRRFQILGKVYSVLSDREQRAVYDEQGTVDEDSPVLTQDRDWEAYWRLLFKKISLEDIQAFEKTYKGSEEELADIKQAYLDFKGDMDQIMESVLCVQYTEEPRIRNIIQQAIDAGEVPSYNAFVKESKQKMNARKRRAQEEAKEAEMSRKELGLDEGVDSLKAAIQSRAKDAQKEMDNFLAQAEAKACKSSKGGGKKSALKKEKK


Experiments:
[1] = biological target: T1, DNAJC9-H43Q-D45N-MYC-Flag (J) (human); test: affinity purification with mass spectrometry; label-free; DNAJC9-Myc-Flag WT, J, 4A and control purifications on anti-Flag M2 beads from MNase-digested U-2-OS chromatin extracts; n = 6
[2] = biological target: T2, DNAJC9-MYC-Flag WT (human); test: as above
[3] = biological target: T3, DNAJC9-Q224A-R227A-M238A-Y242A-MYC-Flag (4A) (human); test: as above
[4] = biological target: T3, DNAJC9-Q224A-R227A-M238A-Y242A-MYC-Flag (4A) (human); test: affinity purification with mass spectrometry; triple SILAC; DNAJC9-Myc-Flag WT, 4A and control purifications on anti-Flag M2 beads from U-2-OS extracts; n = 2

| binding [1] | binding [2] | binding [3] | binding [4] | Binder |
| --- | --- | --- | --- | --- |
| binds | binds | binds | – | SPT2 (endogenous) (protein, UniProt Q68D10 1-685) MDFREILMIASKGQGVNNVPKRYSLAVGPPKKDPKVKGVQSAAVQAFLKRKEEELRRKALEEKRRKEELVKKRIELKHDKKARAMAKRTKDNFHGYNGIPIEEKSKKRQATESHTSQGTDREYEMEEENEFLEYNHAESEQEYEEEQEPPKVESKPKVPLKSAPPPMNFTDLLRLAEKKQFEPVEIKVVKKSEERPMTAEELREREFLERKHRRKKLETDGKLPPTVSKKAPSQKESVGTKLSKGSGDRHPSSKGMPLPHAEKKSRPSMANEKHLALSSSKSMPGERIKAGSGNSSQPSLREGHDKPVFNGAGKPHSSTSSPSVPKTSASRTQKSAVEHKAKKSLSHPSHSRPGPMVTPHNKAKSPGVRQPGSSSSSAPGQPSTGVARPTVSSGPVPRRQNGSSSSGPERSISGSKKPTNDSNPSRRTVSGTCGPGQPASSSGGPGRPISGSVSSARPLGSSRGPGRPVSSPHELRRPVSGLGPPGRSVSGPGRSISGSIPAGRTVSNSVPGRPVSSLGPGQTVSSSGPTIKPKCTVVSETISSKNIISRSSNGQMNGMKPPLSGYRAAQGPQRLPFPTGYKRQREYEEEDDDDDEYDSEMEDFIEDEGEPQEEISKHIREIFGYDRKKYKDESDYALRYMESSWKEQQKEEAKSLRLGMQEDLEEMRREEEEMQRRRAKKLKRR |
| – | – | – | no binding | TONSL (endogenous) (protein, UniProt Q96HA7 1-1378) MSLERELRQLSKAKAKAQRAGQRREEAALCHQLGELLAGHGRYAEALEQHWQELQLRERADDPLGCAVAHRKIGERLAEMEDYPAALQHQHQYLELAHSLRNHTELQRAWATIGRTHLDIYDHCQSRDALLQAQAAFEKSLAIVDEELEGTLAQGELNEMRTRLYLNLGLTFESLQQTALCNDYFRKSIFLAEQNHLYEDLFRARYNLGTIHWRAGQHSQAMRCLEGARECAHTMRKRFMESECCVVIAQVLQDLGDFLAAKRALKKAYRLGSQKPVQRAAICQNLQHVLAVVRLQQQLEEAEGRDPQGAMVICEQLGDLFSKAGDFPRAAEAYQKQLRFAELLDRPGAERAIIHVSLATTLGDMKDHHGAVRHYEEELRLRSGNVLEEAKTWLNIALSREEAGDAYELLAPCFQKALSCAQQAQRPQLQRQVLQHLHTVQLRLQPQEAPETETRLRELSVAEDEDEEEEAEEAAATAESEALEAGEVELSEGEDDTDGLTPQLEEDEELQGHLGRRKGSKWNRRNDMGETLLHRACIEGQLRRVQDLVRQGHPLNPRDYCGWTPLHEACNYGHLEIVRFLLDHGAAVDDPGGQGCEGITPLHDALNCGHFEVAELLLERGASVTLRTRKGLSPLETLQQWVKLYRRDLDLETRQKARAMEMLLQAAASGQDPHSSQAFHTPSSLLFDPETSPPLSPCPEPPSNSTRLPEASQAHVRVSPGQAAPAMARPRRSRHGPASSSSSSEGEDSAGPARPSQKRPRCSATAQRVAAWTPGPASNREAATASTSRAAYQAAIRGVGSAQSRLGPGPPRGHSKALAPQAALIPEEECLAGDWLELDMPLTRSRRPRPRGTGDNRRPSSTSGSDSEESRPRARAKQVRLTCMQSCSAPVNAGPSSLASEPPGSPSTPRVSEPSGDSSAAGQPLGPAPPPPIRVRVQVQDHLFLIPVPHSSDTHSVAWLAEQAAQRYYQTCGLLPRLTLRKEGALLAPQDLIPDVLQSNDEVLAEVTSWDLPPLTDRYRRACQSLGQGEHQQVLQAVELQGLGLSFSACSLALDQAQLTPLLRALKLHTALRELRLAGNRLGDKCVAELVAALGTMPSLALLDLSSNHLGPEGLRQLAMGLPGQATLQSLEELDLSMNPLGDGCGQSLASLLHACPLLSTLRLQACGFGPSFFLSHQTALGSAFQDAEHLKTLSLSYNALGAPALARTLQSLPAGTLLHLELSSVAAGKGDSDLMEPVFRYLAKEGCALAHLTLSANHLGDKAVRDLCRCLSLCPSLISLDLSANPEISCASLEELLSTLQKRPQGLSFLGLSGCAVQGPLGLGLWDKIAAQLRELQLCSRRLCAEDRDALRQLQPSRPGPGECTLDHGSKLFFRRL |

Results are given in words; binding and its absence hold for the method and conditions named. In cells and extracts the contact can be indirect. Here binding means that the protein was enriched with, or labelled near, the bait; the list need not be complete. For some of these results: A no says only that the protein was not detected with the bait. Tags and fused reporters may be left off the sequences shown.
